In publication PMC9873702:
Results are given in words; binding and its absence hold for the method and conditions named. In cells and extracts the contact can be indirect. A result given as binding can be weak or reduced; the word gives no strength.

Protein sequences, listed by entry. Tags and fused reporters are not part of them. Lines headed by an entry give the natural chain unless they say otherwise; changes in a name come on top. Residues count along the entry.
UniProt P35436, residues 1244-1464: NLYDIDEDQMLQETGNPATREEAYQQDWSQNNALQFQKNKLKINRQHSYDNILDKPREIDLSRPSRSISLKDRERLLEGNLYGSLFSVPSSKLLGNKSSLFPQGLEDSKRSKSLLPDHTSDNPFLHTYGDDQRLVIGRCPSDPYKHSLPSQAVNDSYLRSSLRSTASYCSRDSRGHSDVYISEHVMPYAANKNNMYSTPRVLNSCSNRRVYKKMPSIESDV
UniProt Q9Y2J0: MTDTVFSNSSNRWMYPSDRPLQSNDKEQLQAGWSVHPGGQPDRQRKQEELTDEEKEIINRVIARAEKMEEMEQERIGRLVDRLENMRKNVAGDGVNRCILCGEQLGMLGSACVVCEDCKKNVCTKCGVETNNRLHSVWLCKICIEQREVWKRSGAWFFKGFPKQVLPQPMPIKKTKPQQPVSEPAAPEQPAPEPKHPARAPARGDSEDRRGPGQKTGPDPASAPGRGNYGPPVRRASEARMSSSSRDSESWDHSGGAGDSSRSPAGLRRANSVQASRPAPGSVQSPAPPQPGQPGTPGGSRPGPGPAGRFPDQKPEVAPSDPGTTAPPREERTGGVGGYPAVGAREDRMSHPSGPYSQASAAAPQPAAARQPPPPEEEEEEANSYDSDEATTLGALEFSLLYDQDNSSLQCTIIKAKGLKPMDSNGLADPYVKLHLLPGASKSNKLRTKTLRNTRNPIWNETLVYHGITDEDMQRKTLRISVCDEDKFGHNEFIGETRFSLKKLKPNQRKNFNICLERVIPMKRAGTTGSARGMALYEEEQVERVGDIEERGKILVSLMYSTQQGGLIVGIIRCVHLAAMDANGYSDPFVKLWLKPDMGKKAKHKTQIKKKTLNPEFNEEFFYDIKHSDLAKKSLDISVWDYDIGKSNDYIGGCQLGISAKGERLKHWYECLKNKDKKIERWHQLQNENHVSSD

Molecular target: GluN2A C-terminal domain (aa 1244-1464), myc-tagged (mouse) (UniProt P35436)
Assay: co-IP; Flag-tagged Rph3A, myc-tagged GluN2A or HA-tagged PSD95 co-transfected; lysis buffer 50 mM Tris-HCl, 1 mM EDTA, 150 mM NaCl, 1% Igepal CA-630; anti-Flag or anti-myc magnetic agarose beads, 4 °C overnight; western blot; the GluN2A-CTD/PSD95 co-IP was done in the presence of WT or R9A Rph3A

binding: binds
Substance: Rabphilin-3A R9A mutant, Flag-tagged (from UniProt Q9Y2J0)
